The values below come from publication PMC12670400, “LEKTI-Grafted Sunflower Trypsin Inhibitor: A Potential Therapeutic for Skin Diseases” (Journal of Medicinal Chemistry, 2025).

Protein sequences, listed by entry. Tags and fused reporters are not part of them. Lines headed by an entry give the natural chain unless they say otherwise; changes in a name come on top.
UniProt P49862: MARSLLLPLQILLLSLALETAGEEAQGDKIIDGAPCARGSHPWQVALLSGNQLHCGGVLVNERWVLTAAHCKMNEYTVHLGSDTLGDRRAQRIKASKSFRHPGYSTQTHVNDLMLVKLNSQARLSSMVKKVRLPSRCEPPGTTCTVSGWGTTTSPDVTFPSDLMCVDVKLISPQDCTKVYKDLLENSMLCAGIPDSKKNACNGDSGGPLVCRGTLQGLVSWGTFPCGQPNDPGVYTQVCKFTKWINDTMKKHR

No constants are given. Whether binding was seen depends on the method and setting.

In the assay the target is KLK7 (Homo sapiens, UniProt P49862). The experiment in a line: enzyme inhibition assay (fluorogenic substrate); selectivity: inhibition of KLK7, KLK8 or KLK14 activity by the peptide, n = 3; substrates and conditions in the Supporting Information; both purified.

B1: LEKTI-grafted SFTI analogue, lead 7 (peptide)
peptide: GFCTRSNPPECWPN
modifications: head-to-tail cyclised backbone; oxidised (disulfide)
Take B1: the binding entry is on record as “no binding (tested: >1 μm)”.
